Source: PubChem BioAssay AID493014 (National Center for Advancing Translational Sciences (NCATS), 2011)
The campaign covered roughly 340,000 compounds. About 170 (0.05%) were called active. Inconclusive results, whose numbers are uncertain, are shown with a selection of clear calls. Calls follow the shape of the dose curve; as a rule, active = well fitted inhibition curve with a large enough effect in the signal ratio, with a control signal flat (not every such curve was filed as active); inconclusive = small, poorly fitted or top-dose-only effect, or effect the other way, or a change in a side signal; inactive = flat fitted curve, though single readings scatter; the % refers to the signal ratio. Where the call is inconclusive, the potency comes from a doubtful curve fit.

Assay: qHTS Assay to Find Inhibitors of Chronic Active B-Cell Receptor Signaling;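 as to activity change, negative = inhibition: plate controls were basal doxycycline-induced cells for no effect and cells given 10 µM MG132 for full effect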
Details: ABC-DLBCL IkBa-CBG/CBR reporter, luminescence ratio (green luciferase fused to IkBa over red control in TMD8 lymphoma cells), 4 h; activity change, negative = inhibition: at 46.1 µM (top of the series)
Procedure, shortened: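 Doxycycline induced both beetle luciferases in TMD8 lymphoma cells; IKK-driven degradation limits the IkappaBalpha-fused green signal, while red luminescence normalises for cell number and nonspecific effects. Compounds tested up to 46 uM, 4 hrs.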
Potency is read from the fitted curve at half-maximal effect.

Structure (SMILES) | activity change, negative = inhibition | Potency
CCOC(=O)N1CCN(C(=O)CCCOc2ccccc2)CC1 | inconclusive: -0.574% | 
CCOc1ccccc1NC(=O)CC1SC(=N)N(c2ccccc2)C1=O (stereo not drawn) | inconclusive: -9.35% | 
O=Cc1ccc(-c2ccc(C(=O)O)cc2)o1 |  | inconclusive: 35.5 µM [rising, partial curve]
COc1ccc(CN2CCN(Cc3cccc(OC)c3)C(CCO)C2)cc1 (stereo not drawn) | inconclusive: 3.42% | 
CC(C)(C)OC(=O)NNC(=O)c1ccc(Cl)cc1 | inactive | 
CN(Cc1cc([N+](=O)[O-])c2cccnc2c1O)C1CCCCC1 | inactive | 
Cc1ccc2c(=O)[nH]c(Nc3nc(C)cc(-c4ccccc4)n3)nc2c1 | inconclusive: -3.13% | 
CN1CCN(c2oc(/C=C/c3ccccc3)nc2C#N)CC1 | inconclusive: 8.71% | 
COc1ccc(NC(=O)c2sccc2C)cn1 |  | inconclusive: 22.4 µM [falling, partial curve, poor fit]
CCOC(=O)N1CCC(NC(=O)c2ccc3c(c2)N=C(C)c2c(C)ccc(C)c2S3)CC1 |  | inconclusive: 10 µM [falling, partial curve]
Cc1cc(Cn2nnnc2-c2ccncc2)cc(C)c1O | inconclusive: -3.45% | 
COC(=O)c1ccccc1NC(=O)c1cccs1 | inconclusive: -5.62% | 
c1ccc(CNc2nc(-c3cccs3)nc3ccccc23)nc1 | inactive | 
CC(C)c1ccc(/C=C/C(=O)NC2=NCCS2)cc1 | inactive | 
COc1ccc(-c2noc(CN(C)CCC3CCCCO3)n2)cc1 (stereo not drawn) | inactive | 
O=C(NC1CC1)C1=NOC(CNc2ncc(C(F)(F)F)cc2Cl)C1 (stereo not drawn) | inactive | 
CCCCNS(=O)(=O)c1ccc2nc(-c3cccnc3)cc(C(=O)NCC(OC)OC)c2c1 | inconclusive: 4.58% | 
COc1ccc(-n2c(COc3ccc(Cl)cc3)nnc2SCc2ccc(C#N)cc2)cc1 | inconclusive: -12.6% | 
N=c1c2c(ncn1CCN1CCOCC1)Oc1ccc3ccccc3c1C2c1ccccc1 (stereo not drawn) | inconclusive: -12.9% | 
CCn1c(N2CCN(CC(=O)c3c[nH]c4ccccc34)CC2)nc2c1c(=O)[nH]c(=O)n2C |  | inconclusive: 15.8 µM [falling, partial curve, poor fit]
COc1ccc(N2C(=O)N3[C@H](c4ccc(Cl)cc4)[C@@H]4C(=O)N(C5CCCCC5)C(=O)[C@@H]4[C@]3(C)C2=O)cc1 | inconclusive: 4.18% | 
S=c1[nH]nc(CSCc2ccccc2Cl)n1C1CCCCC1 | inactive | 
COc1ccc(S(=O)(=O)Nc2ccc3c(c2)C(=O)N([C@H](C)CO)C[C@H](C)[C@@H](CN(C)S(C)(=O)=O)O3)cc1 | inconclusive: -2.69% | 

A draw from above in order of count of non-hydrogen atoms, ascending:
Structure (SMILES) | activity change, negative = inhibition | Potency
CC(C)c1ccc(/C=C/C(=O)NC2=NCCS2)cc1 | inactive | 
CN1CCN(c2oc(/C=C/c3ccccc3)nc2C#N)CC1 | inconclusive: 8.71% | 
CCCCNS(=O)(=O)c1ccc2nc(-c3cccnc3)cc(C(=O)NCC(OC)OC)c2c1 | inconclusive: 4.58% | 
COc1ccc(S(=O)(=O)Nc2ccc3c(c2)C(=O)N([C@H](C)CO)C[C@H](C)[C@@H](CN(C)S(C)(=O)=O)O3)cc1 | inconclusive: -2.69% | 
